# Source: the supplement of paper PMC12542422
# Counter-ions that a name gives are not always drawn. ± gives the standard deviation of the averaged measurements. The list shows a part of the results. These are raw signals, not scaled to a control.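 Across three biological replicates, HeLa cells were imaged for ribosome assembly using ENP1 staining (export block present or absent) or inducible tagged ribosomal protein reporters. Machine learning classified each cell's signal localization relative to DMSO controls. Hits exceeded the DMSO false-positive mean by five standard deviations and were then visually confirmed.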
# System: HeLa RPS2-YFP reporter
# Assay: fraction of reporter-positive cells with nuclear (nucleolar or nucleolar/nucleoplasmic) RPS2-YFP (MainHitrate); higher = more cells with nucleolar/nuclear readout signal (for ENP1 -LMB: less RNAPI inhibition; for +LMB ENP1 and RP reporters: stronger nuclear/nucleolar retention, i.e. ribosome biogenesis defect)
# Conditions: concentration: 1 µM; treatment time: 6 h
row,SMILES,fraction of reporter-positive cells with nuclear
1,CO[C@H]1C[C@@H]2CC[C@@H](C)[C@@](O)(O2)C(=O)C(=O)N2CCCC[C@H]2C(=O)O[C@H]([C@H](C)C[C@@H]2CC[C@@H](OC(=O)C(C)(CO)CO)[C@H](OC)C2)CC(=O)[C@H](C)/C=C(\C)[C@@H](O)[C@@H](OC)C(=O)[C@H](C)C[C@H](C)/C=C/C=C/C=C/1C [Temsirolimus (Torisel)],0.223 ± 0.17
2,COc1cc(NC(C)CCCN)c2ncccc2c1 (stereo not given) [Primaquine Diphosphate],0.141 ± 0.11
3,Clc1ccc(C(c2ccccc2Cl)C(Cl)Cl)cc1 (stereo not given) [Mitotane (Lysodren)],0.119 ± 0.079
4,CC(C)C[C@H](NC(=O)[C@@H](O)[C@H](N)Cc1ccccc1)C(=O)O [Ubenimex (Bestatin)],0.0885 ± 0.053
5,Cc1ccc(C(=O)c2cc(O)c(O)c([N+](=O)[O-])c2)cc1 [Tolcapone],0.119 ± 0.094
6,CO[C@H]1/C=C/O[C@@]2(C)Oc3c(C)c(O)c4c(c3C2=O)C2=NC3(CCN(CC(C)C)CC3)NC2=C(NC(=O)/C(C)=C\C=C\[C@H](C)[C@H](O)[C@@H](C)[C@@H](O)[C@@H](C)[C@H](OC(C)=O)[C@@H]1C)C4=O [Rifabutin (Mycobutin)],0.105 ± 0.062
7,COC(=O)[C@@H]1CC2=CC(=O)CC[C@]2(C)[C@@]23O[C@@H]2C[C@@]2(C)[C@@H](CC[C@@]24CCC(=O)O4)[C@H]13 [Eplerenone],0.107 ± 0.072
8,O=c1c(-c2ccc(O)cc2)coc2cc(O)cc(O)c12 [Genistein],0.123 ± 0.086
9,Nc1cccc2c1CN(C1CCC(=O)NC1=O)C2=O (stereo not given) [Lenalidomide],0.102 ± 0.1
10,CCCCCCCCOc1ccccc1C(=O)Nc1ccc(C(=O)OCC[N+](C)(CC)CC)cc1 [Otilonium Bromide],0.144 ± 0.11
11,CCN(CC)CCOC(=O)C1(C2CCCCC2)CCCCC1 [Dicyclomine HCl],0.21 ± 0.073
12,CCCC(=O)O[C@]1(C(=O)COC(C)=O)CC[C@H]2[C@@H]3C[C@H](F)C4=CC(=O)C=C[C@]4(C)[C@@]3(F)[C@@H](O)C[C@@]21C [Difluprednate],0.138 ± 0.12
13,N#Cc1c(N(CC(=O)O)CC(=O)O)sc(C(=O)O)c1CC(=O)O [Strontium ranelate (Protelos)],0.148 ± 0.075
14,C[C@@H]1C[C@H]2[C@@H]3CCC4=CC(=O)C=C[C@]4(C)[C@@]3(F)[C@@H](O)C[C@]2(C)[C@@]1(O)C(=O)CO [Dexamethasone],0.126 ± 0.098
15,C[C@@H]1CCC[C@H](C)N1NC(=O)c1ccc(Cl)c(S(N)(=O)=O)c1 [Clopamide],0.162 ± 0.15
16,Nc1cccc2c1C(=O)N(C1CCC(=O)NC1=O)C2=O (stereo not given) [Pomalidomide],0.116 ± 0.086
17,NC1CCN(c2c(F)cc3c(=O)c(C(=O)O)cn(C4CC4)c3c2Cl)C1 (stereo not given) [Clinafoxacin HCl],0.137 ± 0.15
18,CO/N=C(\C(=O)N[C@@H]1C(=O)N2C(C(=O)OCOC(=O)C(C)(C)C)=C(/C=C\c3scnc3C)CS[C@H]12)c1csc(N)n1 [Cefditoren pivoxil],0.131 ± 0.079
19,COC(=O)CCc1ccc(OCC(O)CNC(C)C)cc1 (stereo not given) [Esmolol HCl],0.129 ± 0.094
20,Nc1ccn([C@@H]2O[C@H](CO)[C@@H](O)[C@@H]2O)c(=O)n1 [Cytarabine],0.0711 ± 0.028

# A few values from the results shown.
# For fraction of reporter-positive cells with nuclear, `CO[C@H]1/C=C/O[C@@]2(C)Oc3c(C)c(O)c4c(c3C2=O)C2=NC3(CCN(CC(C)C)CC3)NC2=C(NC(=O)/C(C)=C\C=C\[C@H](C)[C@H](O)[C@@H](C)[C@@H](O)[C@@H](C)[C@H](OC(C)=O)[C@@H]1C)C4=O` [Rifabutin (Mycobutin)] has 0.105 ± 0.062
# For fraction of reporter-positive cells with nuclear, `Nc1ccn([C@@H]2O[C@H](CO)[C@@H](O)[C@@H]2O)c(=O)n1` [Cytarabine] has 0.0711 ± 0.028

# The listing continues:

row,SMILES,fraction of reporter-positive cells with nuclear
1,Cc1cn(-c2cc(NC(=O)c3ccc(C)c(Nc4nccc(-c5cccnc5)n4)c3)cc(C(F)(F)F)c2)cn1 [Nilotinib (AMN-107)],0.0897 ± 0.076
2,CCOC(=O)c1ccc(N)cc1 [Benzocaine],0.105 ± 0.097
3,CCN(Cc1ccncc1)C(=O)C(CO)c1ccccc1 (stereo not given) [Tropicamide],0.097 ± 0.054
4,CC(N/C(=N\C#N)Nc1ccncc1)C(C)(C)C (stereo not given) [Pinacidil],0.395 ± 0.3
5,NC[C@@H]1O[C@H](O[C@H]2[C@@H](O)[C@H](O[C@@H]3[C@@H](O)[C@H](N)C[C@H](N)[C@H]3O[C@H]3O[C@H](CO)[C@@H](O)[C@H](O)[C@H]3N)O[C@@H]2CO)[C@H](N)[C@@H](O)[C@@H]1O [Paromomycin Sulfate],0.124 ± 0.085
6,CCCC(=O)[O-].[Na+] [Sodium butyrate],0.1 ± 0.038
7,CC(C(=O)O)c1cccc(Oc2ccccc2)c1 (stereo not given) [Fenoprofen calcium hydrate],0.113 ± 0.1
8,CCOC(=O)O[C@]1(C(=O)OCCl)CC[C@H]2[C@@H]3CCC4=CC(=O)C=C[C@]4(C)[C@H]3[C@@H](O)C[C@@]21C [Loteprednol etabonate],0.108 ± 0.093
9,O=C(O)c1ccc(-n2nc(-c3ccccc3O)nc2-c2ccccc2O)cc1 [Deferasirox (Exjade)],0.115 ± 0.064
10,NC(=O)N/N=C/c1ccc([N+](=O)[O-])o1 [Nitrofurazone (Nitrofural)],0.117 ± 0.077
11,CCCCOc1ccc(C(=O)CCN2CCCCC2)cc1 [Dyclonine HCl],0.109 ± 0.093
12,CC[C@@H](CO)NCCN[C@@H](CC)CO [Ethambutol HCl],0.121 ± 0.1
13,CO/N=C(\C(=O)N[C@@H]1C(=O)N2C(C(=O)O)=C(CSC(=O)c3ccco3)CS[C@H]12)c1csc(N)n1 [Ceftiofur hydrochloride],0.122 ± 0.084
14,"Cn1c(CNc2ccc(C(=N)N)cc2)nc2cc(C(=O)N(CCC(=O)O)c3ccccn3)ccc21 [BIBR 953 (Dabigatran etexilate, Pradaxa)]",0.102 ± 0.086
15,Cc1ccccc1N1C(=O)c2cc(S(N)(=O)=O)c(Cl)cc2NC1C (stereo not given) [Metolazone (Zaroxolyn)],0.0952 ± 0.068
16,"CC(=O)Oc1ccccc1C(=O)Nc1ncc([N+](=O)[O-])s1 [Nitazoxanide (Alinia, Annita)]",0.11 ± 0.07
17,CCC(C)n1ncn(-c2ccc(N3CCN(c4ccc(OCC5COC(Cn6cncn6)(c6ccc(Cl)cc6Cl)O5)cc4)CC3)cc2)c1=O (stereo not given) [Itraconazole (Sporanox)],0.0631 ± 0.029
18,COc1cc(C)c(/C=C/C(C)=C/C=C/C(C)=C/C(=O)O)c(C)c1C [Acitretin],0.109 ± 0.075
19,O=C(NCCO[N+](=O)[O-])c1cccnc1 [Nicorandil (Ikorel)],0.122 ± 0.056
20,COc1cccc2c1C(=O)c1c(O)c3c(c(O)c1C2=O)C[C@@](O)(C(C)=O)C[C@@H]3O[C@H]1C[C@H](N)[C@H](O)[C@H](C)O1 [Daunorubicin HCl (Daunomycin HCl)],0.066 ± 0.04
